Measured values reported in the supplement of paper PMC10849652.
The list shows a part of the results. Residues, ends and D or L forms follow the SMILES beside them. *: point of attachment. Cbz = O=C(OCc1ccccc1)*

Sequences of proteins named here, by UniProt entry; tags and fusion partners are left off. A change or cut given only in a name is not applied to a line headed by its entry.
UniProt Q07820, whole entry, looked up: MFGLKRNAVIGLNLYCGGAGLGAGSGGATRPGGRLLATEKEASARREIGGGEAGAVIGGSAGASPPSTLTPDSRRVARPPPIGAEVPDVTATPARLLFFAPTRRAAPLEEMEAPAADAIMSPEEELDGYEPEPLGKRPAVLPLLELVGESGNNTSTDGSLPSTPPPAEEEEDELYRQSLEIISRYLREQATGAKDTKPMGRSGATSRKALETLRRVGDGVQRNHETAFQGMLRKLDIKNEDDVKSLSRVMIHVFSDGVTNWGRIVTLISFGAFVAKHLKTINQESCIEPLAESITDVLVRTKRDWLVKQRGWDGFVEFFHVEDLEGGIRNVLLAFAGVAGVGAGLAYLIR
UniProt Q7Z434: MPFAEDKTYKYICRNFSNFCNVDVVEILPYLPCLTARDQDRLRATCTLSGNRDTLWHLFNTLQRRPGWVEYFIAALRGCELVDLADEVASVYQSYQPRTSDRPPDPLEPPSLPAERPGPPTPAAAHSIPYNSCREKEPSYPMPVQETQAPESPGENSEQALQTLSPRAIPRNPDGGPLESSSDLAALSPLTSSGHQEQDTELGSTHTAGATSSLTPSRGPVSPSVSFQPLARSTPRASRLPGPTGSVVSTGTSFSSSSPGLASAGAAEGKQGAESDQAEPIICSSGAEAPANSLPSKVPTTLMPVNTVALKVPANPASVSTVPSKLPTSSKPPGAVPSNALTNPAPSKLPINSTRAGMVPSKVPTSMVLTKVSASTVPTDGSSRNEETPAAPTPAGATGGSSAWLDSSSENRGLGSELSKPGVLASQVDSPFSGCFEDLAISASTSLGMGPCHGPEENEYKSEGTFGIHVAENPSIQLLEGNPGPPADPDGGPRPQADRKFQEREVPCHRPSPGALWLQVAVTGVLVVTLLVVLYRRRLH
UniProt Q9ULC4: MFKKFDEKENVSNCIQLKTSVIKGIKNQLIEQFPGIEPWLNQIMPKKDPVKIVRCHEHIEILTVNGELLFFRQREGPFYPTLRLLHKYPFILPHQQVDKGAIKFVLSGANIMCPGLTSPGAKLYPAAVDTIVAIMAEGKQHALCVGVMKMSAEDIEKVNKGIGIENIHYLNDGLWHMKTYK
UniProt Q96AQ8: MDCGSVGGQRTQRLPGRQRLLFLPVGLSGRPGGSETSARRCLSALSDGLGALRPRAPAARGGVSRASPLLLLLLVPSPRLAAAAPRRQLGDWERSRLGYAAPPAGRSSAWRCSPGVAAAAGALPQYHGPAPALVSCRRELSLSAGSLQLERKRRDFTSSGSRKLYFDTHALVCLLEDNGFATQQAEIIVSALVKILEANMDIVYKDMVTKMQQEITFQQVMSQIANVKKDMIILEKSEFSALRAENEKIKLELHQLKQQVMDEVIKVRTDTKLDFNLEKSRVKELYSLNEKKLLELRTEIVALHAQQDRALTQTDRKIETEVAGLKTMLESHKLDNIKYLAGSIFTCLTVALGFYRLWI
UniProt Q9UQ53: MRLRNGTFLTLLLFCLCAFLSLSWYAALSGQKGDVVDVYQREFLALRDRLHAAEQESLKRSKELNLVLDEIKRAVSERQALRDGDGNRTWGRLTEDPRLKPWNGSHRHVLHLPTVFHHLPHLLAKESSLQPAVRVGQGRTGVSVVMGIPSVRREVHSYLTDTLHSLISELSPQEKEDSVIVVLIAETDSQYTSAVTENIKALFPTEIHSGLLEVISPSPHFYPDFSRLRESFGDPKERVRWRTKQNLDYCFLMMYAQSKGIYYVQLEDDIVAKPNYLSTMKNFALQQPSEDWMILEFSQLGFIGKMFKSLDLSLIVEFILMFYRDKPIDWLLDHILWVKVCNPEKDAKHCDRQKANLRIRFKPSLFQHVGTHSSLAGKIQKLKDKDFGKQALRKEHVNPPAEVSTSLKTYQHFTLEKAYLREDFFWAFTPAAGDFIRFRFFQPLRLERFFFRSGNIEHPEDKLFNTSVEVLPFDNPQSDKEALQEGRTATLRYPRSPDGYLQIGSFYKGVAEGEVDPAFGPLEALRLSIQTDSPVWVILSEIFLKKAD
UniProt Q9BQP7: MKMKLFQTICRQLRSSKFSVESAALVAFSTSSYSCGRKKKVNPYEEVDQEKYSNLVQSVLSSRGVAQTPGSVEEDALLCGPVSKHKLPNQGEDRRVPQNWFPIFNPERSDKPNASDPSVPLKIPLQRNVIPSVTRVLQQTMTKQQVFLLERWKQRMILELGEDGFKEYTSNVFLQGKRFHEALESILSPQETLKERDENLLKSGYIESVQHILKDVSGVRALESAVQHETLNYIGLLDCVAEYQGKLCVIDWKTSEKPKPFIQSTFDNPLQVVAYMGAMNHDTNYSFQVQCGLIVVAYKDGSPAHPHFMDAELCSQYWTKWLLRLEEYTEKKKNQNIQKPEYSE
UniProt Q14814: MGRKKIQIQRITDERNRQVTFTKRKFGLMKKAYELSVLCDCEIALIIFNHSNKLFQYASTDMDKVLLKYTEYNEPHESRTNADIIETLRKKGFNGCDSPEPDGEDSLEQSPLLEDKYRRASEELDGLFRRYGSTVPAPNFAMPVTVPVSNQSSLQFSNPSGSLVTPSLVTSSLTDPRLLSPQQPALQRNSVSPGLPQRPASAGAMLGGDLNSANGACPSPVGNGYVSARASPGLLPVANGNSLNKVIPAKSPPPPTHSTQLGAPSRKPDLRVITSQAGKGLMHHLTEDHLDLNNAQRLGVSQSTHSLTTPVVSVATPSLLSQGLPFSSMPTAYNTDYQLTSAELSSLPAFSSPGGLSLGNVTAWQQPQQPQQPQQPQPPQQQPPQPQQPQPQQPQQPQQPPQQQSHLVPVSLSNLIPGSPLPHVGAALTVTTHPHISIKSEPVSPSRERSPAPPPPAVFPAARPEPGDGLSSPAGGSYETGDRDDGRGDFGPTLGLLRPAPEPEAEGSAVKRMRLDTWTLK
UniProt Q9Y316: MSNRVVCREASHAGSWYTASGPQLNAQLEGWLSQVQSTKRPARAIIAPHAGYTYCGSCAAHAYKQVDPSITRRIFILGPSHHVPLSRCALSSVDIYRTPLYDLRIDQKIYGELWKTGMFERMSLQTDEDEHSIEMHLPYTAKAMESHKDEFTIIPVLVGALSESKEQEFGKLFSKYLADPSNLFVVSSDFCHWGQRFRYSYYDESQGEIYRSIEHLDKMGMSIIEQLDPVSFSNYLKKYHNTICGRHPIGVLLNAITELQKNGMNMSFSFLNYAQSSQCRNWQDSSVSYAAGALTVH
UniProt Q96RN5: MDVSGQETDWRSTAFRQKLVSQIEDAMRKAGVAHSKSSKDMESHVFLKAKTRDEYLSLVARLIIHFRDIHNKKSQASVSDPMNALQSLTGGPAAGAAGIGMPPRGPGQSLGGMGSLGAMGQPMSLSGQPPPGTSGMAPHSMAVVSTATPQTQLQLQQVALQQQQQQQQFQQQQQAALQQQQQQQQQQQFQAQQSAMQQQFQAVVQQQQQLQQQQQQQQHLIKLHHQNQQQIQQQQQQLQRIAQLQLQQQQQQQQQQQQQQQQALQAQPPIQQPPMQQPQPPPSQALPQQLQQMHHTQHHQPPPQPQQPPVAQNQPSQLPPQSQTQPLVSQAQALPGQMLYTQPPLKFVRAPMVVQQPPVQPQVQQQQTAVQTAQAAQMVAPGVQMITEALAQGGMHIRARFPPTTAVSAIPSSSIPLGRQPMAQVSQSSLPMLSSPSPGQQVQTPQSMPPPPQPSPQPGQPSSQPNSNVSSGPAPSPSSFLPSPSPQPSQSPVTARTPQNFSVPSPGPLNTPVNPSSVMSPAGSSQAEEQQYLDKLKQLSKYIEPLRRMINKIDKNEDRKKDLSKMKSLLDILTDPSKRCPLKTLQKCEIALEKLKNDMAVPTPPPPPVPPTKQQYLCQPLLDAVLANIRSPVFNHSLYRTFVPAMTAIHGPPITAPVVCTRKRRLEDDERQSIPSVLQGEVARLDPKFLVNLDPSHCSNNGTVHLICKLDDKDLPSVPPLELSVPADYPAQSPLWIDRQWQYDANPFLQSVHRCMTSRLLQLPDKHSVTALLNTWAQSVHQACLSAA
UniProt Q7L2J0: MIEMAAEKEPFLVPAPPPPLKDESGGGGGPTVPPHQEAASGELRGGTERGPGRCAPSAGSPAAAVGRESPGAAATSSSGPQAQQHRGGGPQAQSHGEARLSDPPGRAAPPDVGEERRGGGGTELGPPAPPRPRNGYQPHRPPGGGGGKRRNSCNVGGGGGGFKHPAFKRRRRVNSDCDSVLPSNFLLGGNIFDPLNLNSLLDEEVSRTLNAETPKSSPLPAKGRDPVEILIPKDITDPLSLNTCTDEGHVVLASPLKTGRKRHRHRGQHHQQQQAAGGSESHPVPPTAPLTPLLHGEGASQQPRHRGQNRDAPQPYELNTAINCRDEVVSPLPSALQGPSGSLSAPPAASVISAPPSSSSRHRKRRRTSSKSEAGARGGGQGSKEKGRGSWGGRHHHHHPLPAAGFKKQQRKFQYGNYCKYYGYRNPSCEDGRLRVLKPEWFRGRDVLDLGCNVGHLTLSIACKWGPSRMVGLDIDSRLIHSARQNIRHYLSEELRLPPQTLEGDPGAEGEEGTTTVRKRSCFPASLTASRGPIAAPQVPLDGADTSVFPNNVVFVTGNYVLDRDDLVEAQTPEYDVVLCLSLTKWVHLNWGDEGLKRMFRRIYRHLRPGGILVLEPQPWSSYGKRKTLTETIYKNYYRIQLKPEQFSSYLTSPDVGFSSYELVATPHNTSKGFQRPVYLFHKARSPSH
UniProt P25205: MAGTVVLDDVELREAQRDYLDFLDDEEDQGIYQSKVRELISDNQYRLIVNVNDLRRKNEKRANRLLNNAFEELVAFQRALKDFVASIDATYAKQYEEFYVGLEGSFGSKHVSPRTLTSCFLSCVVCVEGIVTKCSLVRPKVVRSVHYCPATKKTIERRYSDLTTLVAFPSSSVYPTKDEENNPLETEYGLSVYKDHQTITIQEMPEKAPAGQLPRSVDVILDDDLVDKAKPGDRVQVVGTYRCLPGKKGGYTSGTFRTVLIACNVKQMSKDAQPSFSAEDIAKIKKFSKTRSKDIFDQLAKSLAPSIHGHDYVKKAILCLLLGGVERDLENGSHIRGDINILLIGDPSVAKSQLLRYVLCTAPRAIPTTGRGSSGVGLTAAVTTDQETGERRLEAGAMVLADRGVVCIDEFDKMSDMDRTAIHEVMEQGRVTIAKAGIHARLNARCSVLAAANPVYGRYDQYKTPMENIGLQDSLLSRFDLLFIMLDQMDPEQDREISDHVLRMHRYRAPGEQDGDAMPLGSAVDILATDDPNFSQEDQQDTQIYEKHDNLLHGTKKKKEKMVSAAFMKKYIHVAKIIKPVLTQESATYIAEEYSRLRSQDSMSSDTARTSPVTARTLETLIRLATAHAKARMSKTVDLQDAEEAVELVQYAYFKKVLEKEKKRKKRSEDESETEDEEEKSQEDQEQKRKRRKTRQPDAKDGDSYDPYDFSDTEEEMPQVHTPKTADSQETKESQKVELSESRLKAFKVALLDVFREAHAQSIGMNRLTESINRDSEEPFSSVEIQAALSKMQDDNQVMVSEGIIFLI
UniProt Q9BUE0: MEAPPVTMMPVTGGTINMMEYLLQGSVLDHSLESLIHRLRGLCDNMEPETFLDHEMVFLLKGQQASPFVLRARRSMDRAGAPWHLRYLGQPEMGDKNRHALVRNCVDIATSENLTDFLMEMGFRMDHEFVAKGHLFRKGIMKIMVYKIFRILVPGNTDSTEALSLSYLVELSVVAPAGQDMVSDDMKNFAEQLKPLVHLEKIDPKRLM
UniProt Q6ZNC8: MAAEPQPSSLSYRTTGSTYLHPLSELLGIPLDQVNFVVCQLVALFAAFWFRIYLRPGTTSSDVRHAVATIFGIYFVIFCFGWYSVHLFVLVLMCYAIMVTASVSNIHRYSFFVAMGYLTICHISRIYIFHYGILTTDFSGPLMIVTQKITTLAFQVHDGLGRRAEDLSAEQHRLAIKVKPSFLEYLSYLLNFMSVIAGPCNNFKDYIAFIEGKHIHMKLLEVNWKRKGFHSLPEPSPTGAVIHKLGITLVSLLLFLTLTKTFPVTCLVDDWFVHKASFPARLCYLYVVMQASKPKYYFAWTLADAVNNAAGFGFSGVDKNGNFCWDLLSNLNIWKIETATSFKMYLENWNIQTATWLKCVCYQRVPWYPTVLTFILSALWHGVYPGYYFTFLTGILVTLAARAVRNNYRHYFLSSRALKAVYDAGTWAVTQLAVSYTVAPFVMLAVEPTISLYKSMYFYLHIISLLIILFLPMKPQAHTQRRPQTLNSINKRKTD
UniProt Q00266: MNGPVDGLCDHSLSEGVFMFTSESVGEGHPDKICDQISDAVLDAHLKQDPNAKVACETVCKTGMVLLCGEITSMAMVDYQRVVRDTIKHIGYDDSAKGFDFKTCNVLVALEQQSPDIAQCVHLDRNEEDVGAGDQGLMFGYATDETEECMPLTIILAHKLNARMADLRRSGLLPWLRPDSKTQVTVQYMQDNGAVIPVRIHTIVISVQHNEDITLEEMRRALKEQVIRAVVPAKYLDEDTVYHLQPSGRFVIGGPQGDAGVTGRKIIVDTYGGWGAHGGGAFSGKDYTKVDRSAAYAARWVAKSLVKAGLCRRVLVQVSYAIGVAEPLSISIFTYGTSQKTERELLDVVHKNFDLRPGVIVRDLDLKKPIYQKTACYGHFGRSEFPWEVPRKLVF

Key:
Assay in all cases: log2 fold change, soluble protein after heating vs DMSO (PISA); higher = thermal stabilisation; K562 cells, 10 uM, 30 min; active = over 0.2 and 3.5 SD of the protein, either way, in both replicates (recomputed)
[1] = compound: C1COCCN1CCN2C3=CC=CC=C3N=C2NC(=O)C4=CC(=CC=C4)[N+](=O)[O-] [IRAK-1-4 Inhibitor I]
How it was run: (§1)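 K562 cells at 2×10^6 cells/mL were given 10 μM compound for 30 min. Aliquots then went through 3 min of heating across 48°C-58°C, were pooled, and were extracted in PBS with 0.5% NP-40 at 4°C, and the supernatant after 21,000xg for 90 min was quantified by TMTpro 16plex LC-MS/MS with channel sums equalised. Thermal stability relative to control samples, from duplicates, is given as log2 fold change.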

[2] = compound: C=CC(=O)N1CCC[C@@H](n2nc(-c3ccc(Oc4ccccc4)cc3)c3c(N)ncnc32)C1 [ibrutinib]
How it was run: as §1

[3] = compound: CC(=O)c1cnc2ccc(-c3cc(Cl)c(O)c(Cl)c3)nc2c1N[C@H]1CC[C@H](CN(C)C)CC1
How it was run: as §1

[4] = compound: CC(C)(C)Cn1c(N)nc2ccc(-c3[nH]c(C(C)(C)C)nc3-c3ccc(F)cc3)nc21 [ralimetinib]
How it was run: as §1

[5] = compound: CC(C)(O)CC(=O)NCCn1ccc2ncnc(Nc3ccc(Oc4cccc(C(F)(F)F)c4)c(Cl)c3)c21
How it was run: as §1

[6] = compound: CC(C)C1=C2N=C(C=C(N2N=C1)NCC3=CC=CC=C3)NCCCCCCN
How it was run: as §1

[7] = compound: CC(C)C[C@@H](C=O)NC(=O)[C@H](CC(C)C)NC(=O)[C@H](CC(C)C)NC(=O)OCc1ccccc1
How it was run: as §1

[8] = compound: CC(C)N(C[C@H]1O[C@@H](n2cnc3c(N)ncnc32)[C@H](O)[C@@H]1O)[C@H]1C[C@@H](CCc2nc3cc(C(C)(C)C)ccc3[nH]2)C1 [pinometostat]
How it was run: as §1

[9] = compound: CC1=C(C2=C(C=C1)C(=O)C3=CC=CC=C3N2CCCN)C
How it was run: as §1

[10] = compound: CC1=C(C=C(C=C1)NC(=O)C2=CC(=CC=C2)C(C)(C)C#N)NC3=CC4=C(C=C3)N=CN(C4=O)C
How it was run: as §1

[11] = compound: CC1=C(C=C(C=C1)NC(=O)C2=CC(=CC=C2)N(C)C)NC(=O)C3=CC=C(C=C3)O
How it was run: as §1

[12] = compound: CC1=CC=C(C=C1)SC2=C3C=C(SC3=CN=C2)C(=O)N
How it was run: as §1

[13] = compound: CC1=NC(=CC=C1)C2=C(N=C(N2)C(C)(C)C)C3=CC4=NC=CN=C4C=C3
How it was run: as §1

[14] = compound: CCCCN(Cc1ccc(C(=O)NO)cc1)C(=O)Nc1ccccc1 [Nexturastat A]
How it was run: as §1

[15] = compound: CCCS(=O)(=O)Nc1ccc(F)c(C(=O)c2c[nH]c3ncc(-c4ccc(Cl)cc4)cc23)c1F [vemurafenib]
How it was run: as §1

[16] = compound: CCCS(=O)(=O)Nc1ccc(F)c(C(=O)c2c[nH]c3ncc(Cl)cc23)c1F
How it was run: as §1

[17] = compound: CCCc1cc(C)[nH]c(=O)c1CNC(=O)c1cc(-c2ccnc(N3CCN(C)CC3)c2)cc2c1cnn2C(C)C
How it was run: as §1

[18] = compound: CCN(CC)Cc1ccc2cc(COC(=O)Nc3ccc(C(=O)NO)cc3)ccc2c1 [givinostat]
How it was run: as §1

[19] = compound: CCN(CCCOc1ccc2c(Nc3cc(CC(=O)Nc4cccc(F)c4)[nH]n3)ncnc2c1)CCOP(=O)(O)O [barasertib]
How it was run: as §1

[20] = compound: CC1=C(C(CC(=O)N1)C2=CC=C(C=C2)C(F)(F)F)C(=O)NC3=C(C=C4C(=C3)C=NN4)F
How it was run: as §1

Target | log2 fold change [1] | log2 fold change [2] | log2 fold change [3] | log2 fold change [4] | log2 fold change [5] | log2 fold change [6] | log2 fold change [7] | log2 fold change [8] | log2 fold change [9] | log2 fold change [10] | log2 fold change [11] | log2 fold change [12] | log2 fold change [13] | log2 fold change [14] | log2 fold change [15] | log2 fold change [16] | log2 fold change [17] | log2 fold change [18] | log2 fold change [19] | log2 fold change [20]
MCL1 (UniProt Q07820) | inactive: 0.052 | inactive: 0.095 | inactive: -0.036 | inactive: 0.175 | inactive: -0.054 | inactive: -0.234 | inactive: 0.295 | inactive: -0.186 | inactive: -0.117 | inactive: -0.022 | inactive: -0.047 | inactive: 0.048 | inactive: 0.048 | inactive: 0.08 | inactive: -0.057 | inactive: -0.164 | inactive: 0.084 | inactive: 0.075 | inactive: -0.027 | –
MAVS (UniProt Q7Z434) | inactive: -0.011 | inactive: 0.002 | inactive: -0.018 | inactive: 0.013 | inactive: -0.027 | inactive: 0.011 | inactive: -0.057 | inactive: -0.093 | inactive: 0.022 | inactive: -0.033 | inactive: 0 | inactive: 0.011 | inactive: 0.032 | inactive: -0.025 | inactive: 0.053 | inactive: -0.009 | inactive: -0.027 | inactive: 0.012 | inactive: -0.019 | inactive: -0.031
MCTS1 isoform 3 (UniProt Q9ULC4) | inactive: 0.022 | inactive: 0.025 | inactive: 0.003 | inactive: -0.018 | inactive: 0 | inactive: 0.05 | inactive: -0.021 | inactive: -0.037 | inactive: -0.042 | inactive: 0.033 | inactive: 0.011 | inactive: 0.003 | inactive: 0.023 | inactive: -0.073 | inactive: 0.02 | inactive: -0.007 | inactive: -0.051 | inactive: -0.039 | inactive: -0.016 | inactive: 0.038
MCUR1 (UniProt Q96AQ8) | inactive: 0.011 | inactive: 0.041 | inactive: -0.077 | inactive: 0.118 | inactive: -0.018 | inactive: 0.065 | active: -0.242 | inactive: -0.059 | inactive: -0.002 | inactive: 0 | inactive: -0.067 | inactive: -0.01 | inactive: 0.012 | inactive: -0.06 | inactive: 0.018 | inactive: -0.041 | inactive: -0.079 | inactive: -0.033 | inactive: -0.008 | –
MGAT4B isoform 3 (UniProt Q9UQ53) | inactive: 0.089 | inactive: -0.063 | inactive: 0.008 | inactive: -0.054 | inactive: -0.031 | inactive: -0.042 | inactive: 0.067 | inactive: -0.013 | inactive: 0.094 | inactive: -0.082 | inactive: 0.089 | inactive: -0.026 | inactive: -0.045 | inactive: -0.107 | inactive: 0.031 | inactive: -0.042 | inactive: 0.106 | inactive: -0.025 | inactive: 0.038 | inactive: -0.088
MGME1 (UniProt Q9BQP7) | inactive: 0.058 | inactive: 0.024 | inactive: 0.025 | inactive: -0.009 | inactive: -0.009 | inactive: -0.052 | inactive: -0.002 | inactive: -0.004 | inactive: -0.029 | inactive: 0.011 | inactive: 0.002 | inactive: 0.029 | inactive: 0.012 | inactive: 0.003 | inactive: 0.022 | inactive: 0.051 | inactive: 0.014 | inactive: 0.002 | inactive: -0.02 | inactive: -0.001
MEF2D (UniProt Q14814) | inactive: 0 | inactive: -0.057 | inactive: -0.056 | inactive: -0.05 | inactive: -0.003 | inactive: 0.008 | inactive: 0.028 | inactive: -0.007 | inactive: 0.027 | inactive: -0.008 | inactive: 0.018 | inactive: -0.043 | inactive: -0.022 | inactive: -0.062 | inactive: 0 | inactive: -0.002 | inactive: 0.012 | inactive: -0.045 | inactive: 0.015 | inactive: -0.003
MEMO1 (UniProt Q9Y316) | inactive: 0.071 | inactive: -0.04 | inactive: -0.033 | inactive: -0.023 | inactive: -0.03 | inactive: -0.011 | inactive: -0.02 | inactive: 0.01 | inactive: 0.023 | inactive: -0.019 | inactive: -0.005 | inactive: -0.015 | inactive: -0.033 | inactive: -0.036 | inactive: 0.019 | inactive: 0.012 | inactive: -0.03 | inactive: -0.16 | inactive: 0.02 | inactive: 0.037
MED15 (UniProt Q96RN5) | inactive: -0.015 | inactive: -0.017 | inactive: -0.145 | inactive: -0.018 | inactive: 0.003 | inactive: 0.024 | inactive: 0.12 | inactive: 0.017 | inactive: 0.002 | inactive: -0.021 | inactive: -0.014 | inactive: 0.028 | inactive: 0.015 | inactive: -0.047 | inactive: -0.007 | inactive: -0.026 | inactive: -0.015 | inactive: 0.03 | inactive: -0.011 | inactive: 0.047
MEPCE (UniProt Q7L2J0) | inactive: 0.088 | inactive: 0.023 | inactive: 0.166 | inactive: 0.108 | inactive: 0.026 | inactive: -0.16 | inactive: 0 | inactive: 0.098 | active: -0.31 | inactive: 0.077 | inactive: 0.025 | inactive: -0.014 | inactive: -0.252 | inactive: -0.057 | inactive: 0.062 | inactive: 0.083 | inactive: 0.05 | inactive: -0.04 | inactive: 0.025 | –
METTL7A (UniProt Q9H8H3) | inactive: 0.063 | inactive: 0.048 | inactive: -0.014 | inactive: 0.001 | inactive: 0.059 | inactive: 0.118 | inactive: -0.044 | inactive: -0.022 | inactive: 0.077 | inactive: 0.026 | inactive: -0.052 | inactive: -0.01 | inactive: -0.002 | inactive: -0.025 | inactive: -0.023 | inactive: 0 | inactive: -0.003 | inactive: 0.007 | inactive: -0.067 | inactive: -0.01
MCM3 isoform 2 (UniProt P25205) | inactive: 0.007 | inactive: 0.019 | inactive: -0.035 | inactive: -0.014 | inactive: -0.009 | inactive: 0.001 | inactive: -0.015 | inactive: -0.02 | inactive: 0.029 | inactive: 0 | inactive: -0.003 | inactive: -0.003 | inactive: 0.023 | inactive: -0.012 | inactive: 0.005 | inactive: 0.023 | inactive: -0.015 | inactive: -0.002 | inactive: 0.009 | inactive: 0.019
MED18 (UniProt Q9BUE0) | inactive: -0.027 | inactive: 0 | inactive: -0.071 | inactive: -0.079 | inactive: -0.155 | inactive: -0.031 | inactive: 0.023 | inactive: 0.01 | inactive: 0.001 | inactive: -0.081 | inactive: -0.02 | inactive: -0.031 | inactive: 0.009 | inactive: 0.026 | inactive: 0.051 | inactive: -0.031 | inactive: -0.02 | inactive: -0.015 | inactive: 0.094 | inactive: 0.065
MDC1 (UniProt Q14676) | inactive: -0.012 | inactive: -0.013 | inactive: -0.013 | inactive: 0.062 | inactive: 0.122 | inactive: -0.321 | inactive: 0.176 | inactive: 0.133 | inactive: 0.11 | inactive: -0.019 | inactive: -0.037 | inactive: -0.013 | inactive: -0.076 | inactive: 0.048 | inactive: -0.037 | inactive: -0.008 | inactive: 0.074 | inactive: 0.055 | inactive: -0.074 | –
MBOAT1 (UniProt Q6ZNC8) | inactive: 0.016 | inactive: -0.2 | inactive: 0.064 | inactive: -0.104 | inactive: -0.034 | inactive: -0.177 | inactive: 0.089 | inactive: -0.002 | inactive: 0.018 | inactive: -0.016 | inactive: -0.055 | inactive: 0.213 | inactive: 0.047 | inactive: -0.007 | inactive: -0.185 | inactive: 0.133 | – | inactive: -0.03 | inactive: 0.044 | inactive: -0.047
MAT1A (UniProt Q00266) | inactive: 0.042 | inactive: 0.057 | inactive: 0.009 | inactive: -0.051 | inactive: 0.041 | inactive: 0.114 | inactive: 0.08 | inactive: -0.017 | inactive: -0.058 | inactive: -0.081 | inactive: 0.043 | inactive: -0.012 | inactive: 0.005 | inactive: 0.001 | inactive: -0.028 | inactive: -0.006 | inactive: 0.015 | inactive: -0.064 | inactive: -0.003 | inactive: 0.014
